# From the supplement of paper PMC8104966
# The list shows a part of the results. Repeats in this data set agree poorly, so a single value says little.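 U2OS cells carrying ACE2 were mixed with U2OS cells carrying full-length spike, and fusion was scored by imaging as the share of nuclei showing both cell types' fluorescent markers. A compound counts as an inhibitory hit when it is non-toxic and its fusion z-score falls below -3, meaning more than three standard deviations below the plate's DMSO wells.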
# Test system: U2OS ACE2 x SARS-CoV-2 spike co-culture
# Test: cell-cell fusion (fraction fused) z-score vs plate DMSO control; higher = more fusion
# Settings: 30 µM; 5 h; toxicity class: non-toxic, passed QC
row,SMILES,cell-cell fusion (z-score)
1,Cl.OC(CCN1CCCC1)(c1ccccc1)C1CCCCC1 (stereo unspecified),inactive: -0.279
2,COc1ccc2[n-]c(S(=O)Cc3ncc(C)c(OC)c3C)nc2c1.[Mg+] (stereo unspecified),inactive: 1.96
3,CC(C)NCC(O)c1ccc(O)c(O)c1.Cl (racemic) [(±)-Isoproterenol hydrochloride],inactive: 0.95
4,C[C@@H]1[C@H](O)[C@@H](C)/C=C/C=C/C=C/C=C/C=C/C=C/C=C/[C@H](O[C@@H]2O[C@H](C)[C@@H](O)[C@H](N)[C@@H]2O)C[C@@H]2O[C@](O)(C[C@@H](O)C[C@@H](O)[C@H](O)CC[C@@H](O)C[C@@H](O)CC(=O)O[C@H]1C)C[C@H](O)[C@H]2C(=O)O [Amphotericin B],inactive: -1.72
5,CCc1cccc2c3c([nH]c12)C(CC)(CC(=O)O)OCC3 (stereo unspecified) [Etodolac],inactive: 1.61
6,O=C(CCCl)NCCc1ccccc1,inactive: 3.5
7,C[N+](C)(C)CC(=O)[O-] [Betaine],inactive: 1.95
8,O=C(O)c1cccnc1Nc1cccc(C(F)(F)F)c1 [Niflumic acid],inactive: 1.22
9,CC(=O)c1c(O)c(C)c(O)c2c1OC1=CC(=O)C(C(C)=O)C(=O)C12C (stereo unspecified),inactive: 2.44
10,Cc1cccc(C)c1NC1=NCCCS1,inactive: -0.0217
11,O=C1c2c(O)cccc2Cc2cccc(O)c21,inactive: 1.05
12,CCC1(c2ccc(N)cc2)CCC(=O)NC1=O (stereo unspecified),inactive: 0.357
13,COc1ccc(S(=O)(=O)N(C(C)=O)c2ccccc2/C=C/c2cc[n+]([O-])cc2)cc1,inactive: 0.457
14,COc1c2c(cc3occ(-c4ccc5c(c4)OCO5)c(=O)c13)OC(C)(C)C=C2,inactive: 2.07
15,CCC(C)C(=O)O[C@@H]1C[C@@]2(C)[C@H](c3ccoc3)OC(=O)CC23OC2(C)OC34[C@H](OC(=O)C(C)C)[C@@]3(O)[C@@H](OC(=O)C5(C)OC5C)[C@@]5(C)C[C@]3(O)[C@@](C)([C@H]5CC(=O)OC)C14O2 (stereo partly specified),inactive: 3.3
16,CC(=O)[C@@]12O[C@@H]1CC1C3CC=C4C[C@@H](O)CC[C@]4(C)C3CC[C@@]12C (stereo partly specified),inactive: 2.43
17,"O=C1N=C(O)NC1(c1ccccc1)c1ccccc1 [5,5-Diphenylhydantoin]",inactive: 3.39
18,"Nc1ncnc2c1ncn2[C@@H]1O[C@H](COP(=O)([O-])OP(=O)([O-])OP(=O)([O-])OP(=O)(O)OC[C@@H]2O[C@H](n3cnc4c(N)ncnc43)C(O)[C@@H]2O)[C@H](O)C1O.[NH4+].[NH4+].[NH4+] (stereo partly specified) [P1,P4-Di(adenosine-5')tetraphosphate triammonium]",inactive: -1.39
19,CN1CCN(C2CCN(C(=O)Nc3cc(Oc4ccc(NC(=O)C5(C(=O)Nc6ccc(F)cc6)CC5)c(F)c4)ccn3)CC2)CC1 [Golvatinib (E7050)],inactive: 2.33
20,"Br.CCCN1CCc2cc(O)cc3c2[C@H]1Cc1ccc(O)c(O)c1-3 [R(-)-2,10,11-Trihydroxy-N-propylnoraporphine hydrobromide]",inactive: -2.57
21,NC(=O)C1=CN(C2OC(COP(=O)([O-])OP(=O)([O-])OC[C@H]3O[C@@H](n4cnc5c(N)ncnc54)C(OP(=O)([O-])[O-])[C@H]3O)C(O)C2O)C=CC1.[Na+].[Na+].[Na+].[Na+] (stereo partly specified) [NADPH tetrasodium],inactive: 1.38

row,SMILES,cell-cell fusion (z-score)
1,COc1ccc(OC)c(C(O)C(C)N)c1.Cl (stereo unspecified) [Methoxamine hydrochloride],inactive: 3.39
2,Cl.N[C@@H]1CCCCN(c2c(F)cc3c(=O)c(C(=O)O)cn(C4CC4)c3c2Cl)C1 [Besifloxacin HCl],inactive: 2.47
3,Cc1cccc(Nc2ccccc2C(=O)O)c1C [Mefenamic acid],inactive: 2.61
4,COc1cc(OC)c2c(c1Cl)OC1(C2=O)C(O)=CC(=O)CC1C (stereo unspecified),inactive: 2.05
5,Cc1cc(O)ccc1Cl,inactive: 0.679
6,O[C@H]1[C@H](O)[C@@H](O)[C@H](O)[C@@H](O)[C@H]1O,inactive: 1.73
7,CN(C)CCC[C@@]1(c2ccc(F)cc2)OCc2cc(C#N)ccc21.O=C(O)C(=O)O,inactive: 1.99
8,O=C(c1cc(Cc2n[nH]c(=O)c3ccccc23)ccc1F)N1CCN(C(=O)C2CC2)CC1 [Olaparib],inactive: 2.09
9,C=CC(=O)Nc1cccc(Oc2nc(Nc3ccc(N4CCN(C)CC4)cc3OC)ncc2Cl)c1,inactive: 0.861
10,CC1=C2C[C@@H]3[C@@H](CC=C4C[C@@H](O)CC[C@@]43C)[C@@H]2CC[C@@]12O[C@@H]1C[C@H](C)CN[C@H]1[C@@H]2C [Cyclopamine],inactive: 0.785
11,C[C@@H]1CC[C@@]2(OC1)OC1CC3C4CC=C5C[C@@H](O)CC[C@]5(C)C4CC[C@]3(C)C1[C@@H]2C (stereo partly specified),inactive: 1.75
12,CC1(C)C2CC(=O)[C@]3(C)C(CC[C@@]4(C)[C@H](c5ccoc5)OC(=O)C5OC543)[C@@]2(C)[C@@H](O)C[C@H]1O (stereo partly specified),inactive: 3.12
13,CC1=C(C(=O)Nc2cc3cn[nH]c3cc2F)C(c2ccc(C(F)(F)F)cc2)CC(=O)N1 (stereo unspecified),inactive: 1.86
14,CC(Cc1cccc(C(F)(F)F)c1)NCCOC(=O)c1ccccc1.Cl (stereo unspecified),inactive: 3.49
15,O=C([O-])[C@H](O)[C@@H](O)[C@H](O)[C@H](O)CO.[Na+] [Sodium gluconate],inactive: 2.89
16,CSc1ccc(C(=O)c2[nH]c(=O)[nH]c2C)cc1 [Enoximone],inactive: 2.18
17,O=c1c(O)c(-c2ccccc2)oc2ccccc12,inactive: 0.413
18,Sc1nc2ccccc2s1,inactive: 1.75
19,CCN1C(=O)C=CC1=O [N-Ethylmaleimide],inactive: 1.42
20,"C[C@]12CCC(=O)C[C@@H]1CC[C@@H]1[C@@H]2CC[C@]2(C)C(=O)CC[C@@H]12 [5alpha-ANDROSTAN-3,17-DIONE]",inactive: 1.88

# Given with bars between the fields: entries from further up.
row | SMILES | cell-cell fusion (z-score)
21 | NC(=O)C1=CN(C2OC(COP(=O)([O-])OP(=O)([O-])OC[C@H]3O[C@@H](n4cnc5c(N)ncnc54)C(OP(=O)([O-])[O-])[C@H]3O)C(O)C2O)C=CC1.[Na+].[Na+].[Na+].[Na+] (stereo partly specified) [NADPH tetrasodium] | inactive: 1.38
9 | C=CC(=O)Nc1cccc(Oc2nc(Nc3ccc(N4CCN(C)CC4)cc3OC)ncc2Cl)c1 | inactive: 0.861
14 | CC(Cc1cccc(C(F)(F)F)c1)NCCOC(=O)c1ccccc1.Cl (stereo unspecified) | inactive: 3.49
